# Data published in PubChem BioAssay AID445 (National Center for Advancing Translational Sciences (NCATS), 2006).
# Some of the results follow. Further columns of the screen follow, without active or inactive calls. Most of these compounds were active or inconclusive in the main read-out, so they are no random draw. Words in brackets tell the shape of the fitted curve; partial curves, single points and poor fits give uncertain potencies.
# Test: IkB Signaling
# Details: ABC-DLBCL IkBa-CBG/CBR dual luciferase ratio (green luciferase fused to IkBa over red control in OCI-Ly3 lymphoma cells), 4 h; measured here: control luc red channel unless noted
# How it was run: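 In this assay, an IκBα–CBG68 fusion accumulates when IKK-driven degradation is blocked; native CBR normalizes for cell number. OCI-Ly3 cells were treated 4 h with compound and doxycycline, then green and red light read after Chroma-Glo addition.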
row,Compound,AC50
1,CCc1cc(=O)[nH]c(SCc2nc(-c3ccccc3C)no2)n1,"39.8 µM [falling, single point]"
2,COc1ccc(OC)c(NC(=O)c2nc(SCc3ccc(F)cc3)ncc2Cl)c1,"25.1 µM [falling, single point]"
3,O=C(NCCc1csc(-c2ccc(F)cc2)n1)C(=O)Nc1ccc(Cl)cc1,"1 µM [falling, full curve]"
4,Cc1c(C(=O)Nc2cccc(C(F)(F)F)c2)oc2ccc(S(=O)(=O)N(C)C3CCCCC3)cc12,"12.6 µM [falling, partial curve]"
5,O=C(CC1C(=O)N(c2ccccc2)C(=O)N1CCc1cccs1)Nc1ccc(Cl)cc1 (stereo not given),"20 µM [falling, single point]"
6,CCNC(=O)c1ccc(-n2c(-c3ccccc3)cc3c2CCCCC3)cc1,"7.94 µM [falling, partial curve]"
7,COc1ccc(OC)c(NC(=O)[C@H](Cc2ccccc2)N2Cc3ccccc3C2=O)c1,"39.8 µM [falling, single point]"
8,CCOC(=O)CNc1ncnc2c1nnn2C,"3.16 µM [rising, full curve, poor fit]"
9,COc1cccc(-c2cc(C(=O)Nc3ccc(F)cc3)[nH]n2)c1,"0.02 µM [falling, full curve]"
10,CCC(=O)N1c2ccccc2CC1C(=O)NCCc1ccc(OC)cc1OC (stereo not given),"7.94 µM [falling, full curve, poor fit]"
11,CCc1cccc(-n2c(=O)c3cccnc3n2CC(=O)Nc2ccccc2C(=O)OC)c1,"6.31 µM [falling, partial curve]"
12,Cc1ccc2oc(C(=O)Nc3sc4c(c3C(=O)NCc3ccccc3)CCCC4)cc(=O)c2c1,"1.26 µM [rising, full curve]"
13,CCOc1ccc(NC(=O)c2ccc3nc(Cc4ccccc4)oc3c2)cc1,"7.94 µM [falling, partial curve]"
14,Cc1ccccc1C(=O)Nc1ccc(Cl)cn1,"10 µM [falling, partial curve]"
15,Cc1ccc(-n2nnnc2SCC(=O)N2CCc3ccccc3C2)c(C)c1,"15.8 µM [falling, partial curve]"
16,CC1C(=O)N2CCCc3cc(S(=O)(=O)Nc4ccc(Br)cc4F)cc1c32 (stereo not given),"6.31 µM [falling, partial curve]"
17,CSc1ccc2c(c1)[C@H](N1CCN(C)CC1)Cc1ccccc1S2,"31.6 µM [falling, partial curve]"
18,O=C(Cn1c(=O)oc2cc(S(=O)(=O)NCc3ccccc3)ccc21)N(CCO)Cc1ccccc1,"10 µM [falling, partial curve]"
19,Cc1ccc(Cn2c3ccccc3c3cnn(CC(=O)N4CCCCCC4)c(=O)c32)cc1,"25.1 µM [falling, single point]"
20,COC(=O)c1cc2oc(C)cc2n1CC(=O)Nc1ccc(OC)c(OC)c1,"0.251 µM [rising, full curve]"

row,Compound,AC50
1,COC(=O)c1ccc(NC(=O)CSc2nccn2Cc2ccc(Cl)cc2)cc1,"39.8 µM [falling, single point]"
2,CCOc1ccc(-n2c(=O)c3c(C)c(C)sc3n(Cc3c(F)cccc3Cl)c2=O)cc1,"0.2 µM [rising, full curve, poor fit]"
3,Cc1cc(O)c(C(c2ccccc2)N2CCN(c3ccccc3F)CC2)c(=O)n1Cc1ccco1 (stereo not given),"39.8 µM [falling, single point]"
4,CCOc1ccccc1-n1nnnc1SCc1nc2ccccc2s1,"12.6 µM [falling, partial curve]"
5,CCC(=O)N1CCc2cc(Br)cc(S(=O)(=O)CCC(=O)NCc3ccc(C)cc3)c21,"15.8 µM [falling, partial curve]"
6,COc1ccc(CNC(=O)C(=O)Nc2ccccc2OC)cc1,"5.01 µM [falling, partial curve]"
7,COc1ccc(CCN2C(=O)c3[nH]nc(-c4ccccc4O)c3C2c2ccc(C)cc2)cc1OC (stereo not given),"10 µM [falling, partial curve]"
8,CCOc1ccccc1N(C)C(=O)c1cc(S(=O)(=O)NCc2ccc(C)cc2)ccc1F,"20 µM [falling, single point]"
9,CCc1cccc(NC(=O)Cn2c(=O)n(Cc3ccccc3)c(=O)c3c(C)c(C(=O)N(C)C)sc32)c1,"39.8 µM [falling, single point]"
10,CCc1nn2c(=O)cc(COC(=O)c3cccc(NC(=O)COc4ccccc4F)c3)nc2s1,"15.8 µM [falling, partial curve]"
11,N#CC1=C(O)CCCn2c1nc1ccccc1c2=O,"12.6 µM [falling, partial curve]"
12,CCC(=O)C1=C(c2cccc([N+](=O)[O-])c2)N(C(=O)CC)n2c(nnc2C2CCCCC2)S1,"6.31 µM [falling, partial curve]"
13,COc1ccc(-c2nc3ccccc3o2)cc1NC(=O)COc1c(C)cc(Cl)cc1Cl,"0.126 µM [rising, full curve]"
14,Cc1cccc(-c2nc3c4ccccc4n(CC(=O)Nc4cccc(F)c4)c(=O)n3n2)c1,"5.01 µM [rising, full curve, poor fit]"
15,CCOC(=O)C1CCN(c2csc3ccc(C)cc3c2=O)CC1,"25.1 µM [falling, partial curve]"
16,CC(C)(C)OC(=O)N1CCC(c2c(C(=O)N3CCN(c4ccccc4F)CC3)cnn2C(C)(C)C)CC1,"31.6 µM [falling, partial curve, poor fit]"
17,CCOc1ccc2[nH]c(=O)c(CN(Cc3cccnc3)C(=O)Nc3ccccc3OC)cc2c1,"20 µM [falling, partial curve]"
18,O=C(CCC1CCCC1)c1c(O)c2ccccc2oc1=O,"0.631 µM [falling, full curve]"
19,CCc1ccc2oc(C(=O)N(Cc3cccc(Cl)c3)Cc3ccco3)c(C)c2c1,"39.8 µM [falling, single point]"
20,O=C(Cn1c2ncccc2c(=O)n1-c1ccccc1)Nc1cccc(C(F)(F)F)c1,"39.8 µM [falling, single point]"

# Already shown: entries from further up.
row,Compound,AC50
14,Cc1ccccc1C(=O)Nc1ccc(Cl)cn1,"10 µM [falling, partial curve]"
15,Cc1ccc(-n2nnnc2SCC(=O)N2CCc3ccccc3C2)c(C)c1,"15.8 µM [falling, partial curve]"
16,CC1C(=O)N2CCCc3cc(S(=O)(=O)Nc4ccc(Br)cc4F)cc1c32 (stereo not given),"6.31 µM [falling, partial curve]"
17,CSc1ccc2c(c1)[C@H](N1CCN(C)CC1)Cc1ccccc1S2,"31.6 µM [falling, partial curve]"
18,O=C(Cn1c(=O)oc2cc(S(=O)(=O)NCc3ccccc3)ccc21)N(CCO)Cc1ccccc1,"10 µM [falling, partial curve]"
19,Cc1ccc(Cn2c3ccccc3c3cnn(CC(=O)N4CCCCCC4)c(=O)c32)cc1,"25.1 µM [falling, single point]"
20,COC(=O)c1cc2oc(C)cc2n1CC(=O)Nc1ccc(OC)c(OC)c1,"0.251 µM [rising, full curve]"
1,COC(=O)c1ccc(NC(=O)CSc2nccn2Cc2ccc(Cl)cc2)cc1,"39.8 µM [falling, single point]"
2,CCOc1ccc(-n2c(=O)c3c(C)c(C)sc3n(Cc3c(F)cccc3Cl)c2=O)cc1,"0.2 µM [rising, full curve, poor fit]"
3,Cc1cc(O)c(C(c2ccccc2)N2CCN(c3ccccc3F)CC2)c(=O)n1Cc1ccco1 (stereo not given),"39.8 µM [falling, single point]"
4,CCOc1ccccc1-n1nnnc1SCc1nc2ccccc2s1,"12.6 µM [falling, partial curve]"
5,CCC(=O)N1CCc2cc(Br)cc(S(=O)(=O)CCC(=O)NCc3ccc(C)cc3)c21,"15.8 µM [falling, partial curve]"
